Source: US20230065153A1 (HIROSHIMA UNIVERSITY, published 2023)
No constants are given. Whether binding was seen depends on the method and setting. Some binding calls cover weakened binding; strength is not graded here.

Legend:
[1] = target: T1, human integrin α11 (human) (UniProt Q9UKX5); test: FACS, IgG 5 µg/ml on human integrin α11 introduced CHO cells
T1 sequence (looked up): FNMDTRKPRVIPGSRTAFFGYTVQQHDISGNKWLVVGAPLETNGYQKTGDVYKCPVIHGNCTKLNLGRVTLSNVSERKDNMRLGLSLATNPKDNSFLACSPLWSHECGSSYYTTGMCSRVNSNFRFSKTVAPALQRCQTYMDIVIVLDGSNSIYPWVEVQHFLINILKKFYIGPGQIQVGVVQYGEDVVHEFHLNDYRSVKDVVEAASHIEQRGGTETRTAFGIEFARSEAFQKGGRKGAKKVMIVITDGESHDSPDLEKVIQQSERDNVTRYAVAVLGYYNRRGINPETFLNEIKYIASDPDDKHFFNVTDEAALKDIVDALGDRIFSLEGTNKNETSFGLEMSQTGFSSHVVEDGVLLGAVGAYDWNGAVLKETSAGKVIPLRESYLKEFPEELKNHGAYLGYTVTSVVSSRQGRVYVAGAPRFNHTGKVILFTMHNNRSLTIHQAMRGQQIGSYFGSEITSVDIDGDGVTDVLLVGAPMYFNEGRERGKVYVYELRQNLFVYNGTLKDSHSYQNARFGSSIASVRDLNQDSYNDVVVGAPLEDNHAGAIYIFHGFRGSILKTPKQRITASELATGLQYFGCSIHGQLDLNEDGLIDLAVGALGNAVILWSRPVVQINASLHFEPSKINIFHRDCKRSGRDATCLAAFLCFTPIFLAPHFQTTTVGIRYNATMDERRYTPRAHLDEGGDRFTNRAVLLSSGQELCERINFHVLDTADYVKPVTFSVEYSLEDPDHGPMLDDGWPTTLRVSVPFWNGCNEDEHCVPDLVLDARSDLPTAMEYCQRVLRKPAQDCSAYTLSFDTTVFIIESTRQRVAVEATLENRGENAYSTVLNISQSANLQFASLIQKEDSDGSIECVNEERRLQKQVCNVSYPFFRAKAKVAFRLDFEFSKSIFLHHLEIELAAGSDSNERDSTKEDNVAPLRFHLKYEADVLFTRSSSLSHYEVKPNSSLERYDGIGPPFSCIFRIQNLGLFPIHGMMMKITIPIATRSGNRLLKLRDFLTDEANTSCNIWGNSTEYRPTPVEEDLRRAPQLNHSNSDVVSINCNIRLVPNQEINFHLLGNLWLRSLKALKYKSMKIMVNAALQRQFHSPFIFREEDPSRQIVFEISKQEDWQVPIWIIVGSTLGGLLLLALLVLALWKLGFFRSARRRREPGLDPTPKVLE

rat integrin α11 (rat) = test: FACS on rat integrin α11 introduced CHO cells and on cultured rat hepatic stellate cells

B1: wild-type #33 IgG (anti-integrin α11 monoclonal antibody, chicken-mouse chimeric IgG1) (antibody, V domains shown)
VH: AVTLDESGGGLQTPGGALSLVCKGSGFTFSSYGMQWVRQAPGRGLEWVAGIDDDGSFTLYGAAVDGRATISRDNGQTTVRLQLSDLRAEDTATYFCAKGGYGYCWYGDAACIDAWGHGTEVIVSS
VL: AVTQPSSVSANPGETVKITCSGGSDSWYGWYQQKSPGSAPVTVIYSNNQRPSNIPSRFSGSTSGSTSTLTITGVQADDEAVYFCGSRDSSYDGIFGAGTTLTVLK
notes: Chicken VH linked to a mouse IgG1 constant region and chicken VL linked to a mouse Igκ region; His-tagged at the C-terminal; also called the antibody
For B1, the binding [1] was “binds” and the binding (rat integrin α11 (rat)) was “binds”.
